Reference: the supplement of paper PMC10338343
± gives the standard deviation. The list shows a part of the results, in another mix than the full data. Many of these values have a large error. This is one part of the list.

Experiments:
[1] = tested on: MILI (PIWIL2) piRISC loaded with L1MC piRNA (26 nt); test: pre-steady-state target cleavage rate (min^-1); higher = faster piRNA-guided slicing of the target; settings: guide: L1MC piRNA 5'p-UAACUAAAUACUAUGCAAGCUGUAGG
In short: (§1)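 The method was Cleave-'n-Seq, in which uncleaved targets from a transcribed, DNA-blocked target RNA library were sequenced after exposure to active affinity-purified piRISC carrying one synthetic guide, with or without GTSF1 partner protein. Reactions contained 0.1 nM library, 1 nM piRISC and, where present, 500 nM GTSF1 in HEPES–potassium acetate buffer at 33 °C for 0–8 or 0–960 min. Reads were normalised to depth and to weakly complementary targets, three trials were pooled, and k3 was capped at 0.0001 min^-1. The pre-steady-state cleavage rate came from a burst-and-steady-state fit.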

[2] = tested on: MIWI (PIWIL1) piRISC loaded with L1MC piRNA (30 nt); test: as above; settings: guide: L1MC piRNA 5'p-UAACUAAAUACUAUGCAAGCUGUAGGUCCU
In short: as §1

[3] = tested on: EfPiwi piRISC loaded with L1MC piRNA (26 nt); test: pre-steady-state target cleavage rate (min^-1); guide: L1MC piRNA 5'p-UAACUAAAUACUAUGCAAGCUGUAGG; MIWI and MILI are mouse PIWI proteins and EfPiwi is from a freshwater sponge; tags in brackets are library labels; higher = faster piRNA-guided slicing of the target
In short: as §1

[4] = auxiliary factor: 500 nM mouse GTSF1
[5] = auxiliary factor: none (no GTSF1)
[6] = auxiliary factor: 500 nM Ephydatia muelleri Gtsf1
[7] = auxiliary factor: none (no Gtsf1)

| Sequence | pre-steady-state target cleavage rate [1, 4] | pre-steady-state target cleavage rate [1, 5] | pre-steady-state target cleavage rate [2, 5] | pre-steady-state target cleavage rate [3, 6] | pre-steady-state target cleavage rate [3, 7] | pre-steady-state target cleavage rate [2, 4] |
| --- | --- | --- | --- | --- | --- | --- |
| UCCUGGAUGUCGAAGCGAUAGUAUUUAGUUA | 0.00135 ± 0.0064 | 0.000548 ± 0.011 | 0.000512 ± 0.013 | 0.000251 ± 0.013 | 0.000248 ± 0.028 | – |
| UCCUGGAUGUCCUUGCAUACUAUUUAGAUA | 0.00286 ± 0.0044 | 0.000977 ± 0.005 | 0.000966 ± 0.0066 | 0.0031 ± 0.0039 | < 0.0001 | 0.00269 ± 0.0047 |
| UCCUGGAUGAGGUUGCAUAGUAUUUACAAA | 0.00042 ± 0.017 | 0.00056 ± 0.0098 | 0.00066 ± 0.01 | 0.000651 ± 0.0052 | 0.000676 ± 0.015 | 0.000245 ± 0.03 |
